This note sets out measurements from US8895695B2 (priority 2003, dated 2014).

The nature of the data set: general procedure: Fmoc solid-phase peptide synthesis; Fmoc-ProO-chlorotritylresin, Fmoc-DProO-chlorotritylresin, Fmoc-S-(4-S-Alloc-amino)-ProO-chlorotritylresin. Particulars: whole synthesis, scale of the general procedure 60 mg resin per vessel.

With “Val-Arg-Cit-Cys-Arg-Gly-^DPro-Arg-Arg-2-Nal-Cys-Tyr-Gln-Lys-^DPro^LPro”, the “final purity (method not given)” value amounted to 95%.
